Reference: ChEMBL document CHEMBL1240411, “Synthesis and evaluation of anti-Toxoplasma gondii and antimicrobial activities of thiosemicarbazides, 4-thiazolidinones and 1,3,4-thiadiazoles” (Eur J Med Chem, 2010)
Converted amounts (≈) assume the structure as drawn.

System: Escherichia coli
Experiment: Antibacterial activity against Escherichia coli UFPEDA 224 after 24 to 48 hrs by serial dilution method
Type: functional

## O=C(N[C@H](CO)[C@H](O)c1ccc([N+](=O)[O-])cc1)C(Cl)Cl [CHLORAMPHENICOL]
  MIC: 14 mg/L (≈ 43.3 µM)
